From US8859573B2, “Pyrimidinone and pyridinone compounds for use in the treatment of diseases or conditions mediated by Lp-PLA2” (Glaxo Group Limited, priority 2010, dated 2014)
Some entries share one result that the patent states for a list of compounds.

Target: Recombinant human PLA2 VIIB (Homo sapiens, UniProt Q99487)
Experiment: PLA2 VIIB assay
Format: biochemical

Row | SMILES | selectivity between human recombinant Lp-PLA2 and PLA2 VIIB [fold]
1 | Cn1cc(Cn2cc(F)c(OCCc3ccc(Oc4ccc(Cl)c(C(F)(F)F)c4)nc3)nc2=O)cn1 [Example 40, 4-(2-(6-(4-chloro-3-(trifluoromethyl)phenoxy)pyridin-3-yl)ethoxy)-5-fluoro-1-((1-methyl-1H-pyrazol-4-yl)methyl)pyrimidin-2(1H)-one] | ≤ 100
2 | Cn1cc(Cn2cc(F)c(OCCc3ccc(Oc4ccc(F)c(C(F)(F)F)c4)nc3)nc2=O)cn1 [Example 39, 5-fluoro-4-(2-(6-(4-fluoro-3-(trifluoromethyl)phenoxy)pyridin-3-yl)ethoxy)-1-((1-methyl-1H-pyrazol-4-yl)methyl)pyrimidin-2(1H)-one] | ≤ 100
3 | CCn1cc(F)c(OCCc2ccc(Oc3cccc(C(F)(F)F)n3)cc2)nc1=O.O=C(O)C(F)(F)F [Example 63, 1-ethyl-5-fluoro-4-(4-((6-(trifluoromethyl)pyridin-2-yl)oxy)phenethoxy)pyrimidin-2(1H)-one, trifluoroacetic acid salt] | ≤ 100
4 | Cc1cn(Cc2cnn(C)c2)c(=O)nc1OCCc1ccc(Oc2ccc(F)c(F)c2)nc1 [Example 67, 4-(2-(6-(3,4-difluorophenoxy)pyridin-3-yl)ethoxy)-5-methyl-1-((1-methyl-1H-pyrazol-4-yl)methyl)pyrimidin-2(1H)-one] | ≤ 100
